Measurements reported in PubChem BioAssay AID1259308 (NCATS, 2017)
Here is an unselected part of about 59,000 reagents. Of all reagents, about 1,510 (2.6%) are marked active. 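Calls use total luciferase alone and ignore viability, so some active siRNAs may act by altering cell number.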 Unmarked entries are inactive. The numbers tell different reagents against one gene apart.

Aim: 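Knock-downs that increase output of a recombinant reporter protein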 (primary screen)
Cell system: human HEK293 embryonic kidney cells stably expressing firefly luciferase (HEK-CMV-Luc2-Hygro)
Knock-down reagent: single siRNA against human genes, 0.8 pmol siRNA per well
Time to read-out: 72 h
Measured: 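Luciferase light (ONE-Glo) measured on one replicate plate set and viability (CellTiter-Glo) on the other, scaled to a negative control siRNA, with robust z-scores and luciferase per cell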
Scale: total luciferase, z-score and total luciferase, % of control: higher = more reporter protein produced; luciferase per cell, z-score: higher = more reporter output per viable cell; viable cells, % of control: higher = more viable cells
Active means: 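An siRNA counts as active if its total luciferase robust z-score exceeds 3; genes with two or more such siRNAs out of three were retested with fresh siRNAs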
Calls: active = raised luciferase; inactive = no rise

gene knocked down	reagent	total luciferase, z-score	total luciferase, % of control	luciferase per cell, z-score	viable cells, % of control
USP9Y (ubiquitin specific peptidase 9 Y-linked)	1	0.566	93.1	0.0321	103
USP9Y (ubiquitin specific peptidase 9 Y-linked)	2	-0.366	74.6	-0.317	90.6
USP9Y (ubiquitin specific peptidase 9 Y-linked)	3	0.403	89.9	0.582	86.2
CD5 (CD5 molecule)	1	-0.442	73.1	-1.08	109
CD5 (CD5 molecule)	2	-0.973	62.5	-1.17	95.1
CD5 (CD5 molecule)	3	-0.662	68.7	-0.512	87.9
PARGP1 (PARG pseudogene 1)	1	2.57	133	1.99	87.9
PARGP1 (PARG pseudogene 1)	2	-0.718	67.6	-0.79	93
PARGP1 (PARG pseudogene 1)	3	-0.114	79.6	-0.279	95.8
NTF4 (neurotrophin 4)	1	0.806	97.9	0.44	97.4
NTF4 (neurotrophin 4)	2	-0.179	78.3	0.472	77.3
NTF4 (neurotrophin 4)	3	-2.02	41.7	-3.14	107
CCDC50 (coiled-coil domain containing 50)	1	0.499	91.8	1.18	75.1
CCDC50 (coiled-coil domain containing 50)	2	-2.05	41.2	-1.85	74.9
CCDC50 (coiled-coil domain containing 50)	3	0.786	97.5	0.37	98.9
KDM7A (lysine demethylase 7A)	1	0.195	85.8	0.169	91.7
KDM7A (lysine demethylase 7A)	2	-1.99	42.2	-2.24	85.2
KDM7A (lysine demethylase 7A)	3	1.8	118	1.39	91
CLHC1 (clathrin heavy chain linker domain containing 1)	1	-0.246	77	-0.0904	88.1
CLHC1 (clathrin heavy chain linker domain containing 1)	2	-1.35	55	-0.606	72.1
CLHC1 (clathrin heavy chain linker domain containing 1)	3	1.21	106	0.971	91.6
DDC (dopa decarboxylase)	1	-0.684	68.3	-1.29	107
DDC (dopa decarboxylase)	2	2.08	123	1.91	83.4
DDC (dopa decarboxylase)	3	-0.524	71.5	-0.764	97.7
PPARG (peroxisome proliferator activated receptor gamma)	1	0.0868	83.6	-1.04	123
PPARG (peroxisome proliferator activated receptor gamma)	2	0.41	90	-0.167	105
PPARG (peroxisome proliferator activated receptor gamma)	3	-1.17	58.7	-1.52	97.8
C2orf69 (chromosome 2 open reading frame 69)	1	1.16	105	1.31	82.9
C2orf69 (chromosome 2 open reading frame 69)	2	-0.471	72.5	-0.0644	82.4
C2orf69 (chromosome 2 open reading frame 69)	3	1.14	104	0.439	104
ENG (endoglin)	1	3.13 (active)	144	1.96	96.3
ENG (endoglin)	2	0.0988	83.9	-0.24	99.8
ENG (endoglin)	3	1.36	109	0.877	96.7
MKS1 (MKS transition zone complex subunit 1)	1	-0.256	76.8	0.116	83.2
MKS1 (MKS transition zone complex subunit 1)	2	-2.66	28.9	-2.76	66.8
MKS1 (MKS transition zone complex subunit 1)	3	0.179	85.5	-0.742	116
SULT1B1 (sulfotransferase family 1B member 1)	1	0.234	86.5	-0.499	110
SULT1B1 (sulfotransferase family 1B member 1)	2	1.59	114	0.763	104
SULT1B1 (sulfotransferase family 1B member 1)	3	-0.222	77.5	-0.12	89.3
LINC01347 (long independently transcribed non-coding RNA 1347)	1	1.48	111	1.4	86.1
LINC01347 (long independently transcribed non-coding RNA 1347)	2	0.936	101	0.645	94.8
LINC01347 (long independently transcribed non-coding RNA 1347)	3	1.11	104	1.62	75.7
COPS6 (COP9 signalosome subunit 6)	1	0.828	98.4	1.3	78
COPS6 (COP9 signalosome subunit 6)	2	-0.179	78.3	-0.464	98.9
COPS6 (COP9 signalosome subunit 6)	3	-0.822	65.5	-0.544	84.5

Records listed so far whose target name begins with S or s:
gene knocked down	reagent	total luciferase, z-score	total luciferase, % of control	luciferase per cell, z-score	viable cells, % of control
SULT1B1 (sulfotransferase family 1B member 1)	1	0.234	86.5	-0.499	110
SULT1B1 (sulfotransferase family 1B member 1)	2	1.59	114	0.763	104
SULT1B1 (sulfotransferase family 1B member 1)	3	-0.222	77.5	-0.12	89.3

Continued:
gene knocked down	reagent	total luciferase, z-score	total luciferase, % of control	luciferase per cell, z-score	viable cells, % of control
NAPSA (napsin A aspartic peptidase)	1	-1.07	60.5	-1.07	89.7
NAPSA (napsin A aspartic peptidase)	2	2.16	125	1.85	85.8
NAPSA (napsin A aspartic peptidase)	3	-2.18	38.5	-2.97	94.1
UBP1 (upstream binding protein 1)	1	1.48	111	1	95.6
UBP1 (upstream binding protein 1)	2	1.39	110	1.11	91.4
UBP1 (upstream binding protein 1)	3	1.1	104	0.871	92.1
CDC26 (cell division cycle 26)	1	-1.73	47.4	-1.93	88.2
CDC26 (cell division cycle 26)	2	-1.05	61.1	-1.13	92
CDC26 (cell division cycle 26)	3	-0.82	65.6	-0.813	90.8
JUP (junction plakoglobin)	1	-0.958	62.8	-0.262	75.2
JUP (junction plakoglobin)	2	0.26	87.1	0.125	94.1
JUP (junction plakoglobin)	3	-0.486	72.2	-0.704	97.1
PLD5 (phospholipase D family member 5)	1	-0.759	66.8	-0.695	89.6
PLD5 (phospholipase D family member 5)	2	0.118	84.2	-0.241	100
PLD5 (phospholipase D family member 5)	3	-0.568	70.6	-0.791	97.1
GPRIN3 (GPRIN family member 3)	1	2.92	140	4.85	43.6
GPRIN3 (GPRIN family member 3)	2	-1.07	60.5	-0.478	76.7
GPRIN3 (GPRIN family member 3)	3	0.083	83.5	0.199	88.6
FDPS (farnesyl diphosphate synthase)	1	-1.87	44.7	-2.47	95.8
FDPS (farnesyl diphosphate synthase)	2	-0.554	70.9	-0.623	93.3
FDPS (farnesyl diphosphate synthase)	3	-0.536	71.2	-0.434	89.2
DCTN4 (dynactin subunit 4)	1	-0.529	71.4	-0.752	97.2
DCTN4 (dynactin subunit 4)	2	-0.347	75	-0.701	101
DCTN4 (dynactin subunit 4)	3	0.354	88.9	0.186	94.6
KCTD12 (potassium channel tetramerization domain containing 12)	1	4.13 (active)	164	2.69	90.2
KCTD12 (potassium channel tetramerization domain containing 12)	2	-0.153	78.8	-0.241	93.9
KCTD12 (potassium channel tetramerization domain containing 12)	3	1.48	111	2.11	71.4
KIAA1958	1	1.92	120	2.62	67.4
KIAA1958	2	0.874	99.3	1.09	83.3
KIAA1958	3	0.255	87	0.573	83.6
